Assay results taken from patent US20150037341A1, “Diagnostic and Therapeutic Method” (Plysackaridforskning i Uppsala AB, priority 2011, published 2015).

Tested on: TTR transgenic flies (engineered mutant form of human TTR)
Test: Transgenic Drosophila TTR-model, flies reared on supplemented medium
Type: in vivo, Drosophila melanogaster
Description: (A) Eggs of TTR transgenic flies were cultured on regular medium (control) or medium supplemented with low molecular weight heparin (Klexane®) or heparin. Heads were collected 9-17 days posteclosion and lysed in saline. The extract was analyzed by ThT staining. Values represent the average of duplicate experiments. (B) The presence of heparin in the Drosophila head lysate was analyzed with dot-blot stained Alcian blue. Heparin (25 ng and 50 ng) was used as positive control. Twenty-five microliters of the lysate (same samples as used for ThT analysis) was applied to a nylon membrane (Hybond N+, GE Healthcare) and stained with Alcian blue (0.5% Alcian Blue dissolved in 25% isopropanol and 3% acetic acid).
FIG. 14 illustrates the detection of heparin-TTR co-localization in TTR transgenic flies (A-G) Confocal microscopy analysis of cryo-sections prepared from Drosophila heads. (A) Overview image of a Drosophila head stained with DAPI (blue), showing the brain (Br), optical lobes (OI) and retina (Re). […]
The transgenic Drosophila melanogaster strain (Dhet TTR-A) overexpressing a mutant TTR was generated as described (7). […] The fluorescence was measured as described above. Non-TTR-transgenic flies were used as control to subtract background fluorescence. […]

Q: How did the “Alcian blue dot-blot staining of fly head lysate (presence of heparin)” value (25 microliters of head lysate) turn out when heparin was run?
A: Strong staining

Q: And the “TTR and heparin co-staining in head sections (immunohistostaining)” value (TTR-transgenic flies on heparin-supplemented medium)?
A: TTR- and heparin co-staining in the retina
